Data as given in PubChem BioAssay AID504791 (Drosophila RNAi Screening Center, 2011).

Test: 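Factors in Argonaute-based small RNA production and activity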 (primary screen)
Cell system: Drosophila S2-derived reporter cells
Reagent: long dsRNA against Drosophila genes, about 150-250 ng dsRNA per well (siRNA assay); about 80-120 ng (miRNA assay)
Time to read-out: about 5 days (siRNA assay); about 4 days (miRNA assay)
Treatment: copper sulfate induction of reporters: 25 µM (siRNA assay); 200 mM stated (miRNA assay), 1-2 days before reading
Read-out: 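Per-well ratio of Renilla over firefly light, expressed relative to that plate's average ratio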
Direction: siRNA reporter hit score: higher = 3 marks a strong hit with raised ratio; -3 a strong hit with lowered ratio
Units: stable assay Renilla, run 1 in luminescence; stable assay firefly, run 1 in luminescence
Rule for the call: 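First-pass picks had plate-scaled ratios over 1.5 for the siRNA assay, over 1.6 for the miRNA assay, or under 0.6; two distinct dsRNAs had to score alike on retest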
The deposit covers about 23,000 reagents; shown is an unselected part of those that have a named target and a result. Over the whole deposit, 199 (0.86%) were called active. 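Plate-scaled ratios behind the calls are not deposited; printed light signals are raw; many rows marked increased or decreased are still called inactive.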 A number with no mark means an inactive call. The numbers tell different reagents against one gene apart. Names joined by + are all predicted targets of the reagent.

Target gene | reagent no. | siRNA reporter hit score | stable siRNA reporter change | miRNA reporter change | stable assay Renilla, run 1 | stable assay firefly, run 1
Tb | 1 | – | – | – | 6520 | 4.03e5
Alp1 | 1 | – | – | – | 9915 | 4.36e5
GABA-B-R1 | 1 | – | – | – | 9441 | 6.57e5
CG4709 | 1 | – | – | – | 7110 | 2.86e5
Drs | 1 | – | – | – | 5896 | 3.26e5
Taf3 | 1 | – | – | – | 9157 | 7.55e5
IntS6 | 1 | – | – | – | 10995 | 7.58e5
CG13288 | 1 | – | – | – | 6383 | 5.42e5
Gr93b | 1 | – | – | – | 9614 | 6.28e5
CG31431 | 1 | – | – | – | 8144 | 3.70e5
CG17597 | 1 | – | – | – | 7495 | 1.73e6
CG15011 | 1 | – | – | – | 8438 | 3.34e5
MED27 | 1 | – | – | – | 6272 | 4.55e5
CG42268 | 1 | – | – | reporter ratio lowered past the hit cutoff | 5395 | 4.57e5
CG42268 | 2 | – | – | – | 6104 | 2.88e5
CG42268 | 3 | – | – | – | 8823 | 4.27e5
CG2247 | 1 | – | – | – | 8130 | 3.82e5
Gcat | 1 | – | – | – | 7454 | 6.53e5
mus304 | 1 | – | – | – | 7611 | 3.12e5
InR | 1 | – | – | – | 8566 | 4.30e5
Sec61gamma | 1 | – | – | – | 5611 | 4.15e5
Cdk1 | 1 | -3 | – | – | 1.43e5 | 7.27e5
scrib | 1 | – | – | – | 5871 | 3.54e5
scrib | 2 | – | reporter ratio lowered past the hit cutoff | – | 7504 | 8.20e5
scrib | 3 | – | – | – | 6463 | 4.69e5
GstT3 | 1 | – | – | – | 6387 | 3.52e5
RpS3 | 1 | – | – | – | 7739 | 3.53e5
CG6023 | 1 | – | – | – | 7270 | 3.63e5
Irp-1B | 1 | – | – | – | 6867 | 4.20e5
CG11227 | 1 | – | – | – | 5276 | 2.79e5
CG15617 | 1 | – | – | – | 7239 | 3.32e5
Trf4-1 | 1 | – | – | – | 6587 | 3.11e5
CG11668 | 1 | – | – | – | 6526 | 5.08e5
hpRNA:CR18854 | 1 | – | – | – | 9146 | 5.10e5
Cyp9b2 | 1 | – | – | – | 6838 | 3.45e5
MFS14 | 1 | – | – | – | 2603 | 3.24e5
CG42714 | 1 | – | – | – | 5175 | 4.87e5
kibra | 1 | – | – | – | 7934 | 4.34e5
kibra | 2 | – | – | reporter ratio raised past the hit cutoff | 7850 | 2.99e5
kibra | 3 | – | – | – | 3196 | 2.32e5
CG14000 + bchs | 1 | – | – | reporter ratio raised past the hit cutoff | 8782 | 4.11e5
Ctf4 | 1 | – | – | – | 8459 | 4.51e5
yip2 | 1 | – | – | – | 7573 | 3.47e5
Etl1 | 1 | – | – | – | 13177 | 6.06e5
Alas | 1 | – | – | – | 7374 | 1.40e6
CG4409 | 1 | – | – | – | 6939 | 3.01e5
CG43707 | 1 | – | – | – | 6114 | 3.11e5
CG43707 | 2 | – | – | – | 7002 | 4.72e5
Orc6 | 1 | – | – | – | 7210 | 5.03e5
CG4679 | 1 | – | – | – | 5379 | 3.80e5
CG12861 | 1 | – | – | – | 5828 | 3.09e5
CG12861 | 2 | – | – | – | 9678 | 5.88e5
spict | 1 | – | – | – | 31823 | 4.54e5
insv | 1 | – | – | – | 7695 | 3.78e5
RecQ5 | 1 | – | – | – | 8083 | 3.03e5
CG33922 | 1 | – | – | – | 5339 | 4.02e5
CG31388 | 1 | – | – | – | 8815 | 4.74e5
spz4 | 1 | – | – | – | 5884 | 3.06e5
CG10553 | 1 | – | – | – | 6642 | 3.08e5
CG4301 | 1 | – | – | – | 5551 | 4.38e5
CG34234 + Dh44-R2 | 1 | – | – | – | 7938 | 4.55e5
Proc | 1 | – | – | – | 5371 | 2.14e5
Proc | 2 | – | – | – | 3103 | 2.60e5
CCAP | 1 | – | – | – | 7631 | 4.61e5

Ordered by “stable assay firefly, run 1” (low to high): some entries from above.
Target gene | reagent no. | siRNA reporter hit score | stable siRNA reporter change | miRNA reporter change | stable assay Renilla, run 1 | stable assay firefly, run 1
kibra | 3 | – | – | – | 3196 | 2.32e5
CG11227 | 1 | – | – | – | 5276 | 2.79e5
kibra | 2 | – | – | reporter ratio raised past the hit cutoff | 7850 | 2.99e5
Trf4-1 | 1 | – | – | – | 6587 | 3.11e5
MFS14 | 1 | – | – | – | 2603 | 3.24e5
CG15617 | 1 | – | – | – | 7239 | 3.32e5
Cyp9b2 | 1 | – | – | – | 6838 | 3.45e5
CG6023 | 1 | – | – | – | 7270 | 3.63e5
Irp-1B | 1 | – | – | – | 6867 | 4.20e5
kibra | 1 | – | – | – | 7934 | 4.34e5
CG42714 | 1 | – | – | – | 5175 | 4.87e5
CG11668 | 1 | – | – | – | 6526 | 5.08e5
hpRNA:CR18854 | 1 | – | – | – | 9146 | 5.10e5

Continued.
Target gene | reagent no. | siRNA reporter hit score | stable siRNA reporter change | miRNA reporter change | stable assay Renilla, run 1 | stable assay firefly, run 1
CG4734 | 1 | – | – | – | 6235 | 3.71e5
CG4734 | 2 | – | – | – | 8866 | 6.09e5
barc | 1 | – | – | – | 9518 | 5.61e5
Hesr | 1 | – | – | – | 5280 | 3.76e5
Idgf1 | 1 | – | – | – | 54786 | 1.28e6
sp3 | 1 | – | – | – | 6683 | 3.21e5
Mtpbeta | 1 | – | – | – | 19002 | 1.03e6
CG34331 | 1 | – | – | – | 5647 | 4.52e5
Lst | 1 | – | – | – | 6406 | 3.64e5
Rrp46 | 1 | – | – | – | 9185 | 4.16e5
ksh | 1 | – | – | – | 5531 | 3.26e5
CG8661 | 1 | – | – | – | 5774 | 5.28e5
Osi17 | 1 | – | – | – | 6475 | 5.32e5
CG31404 | 1 | – | – | – | 7152 | 3.12e5
CG15712 | 1 | – | – | – | 6219 | 3.19e5
MTPAP | 1 | – | – | – | 6040 | 4.19e5
tld | 1 | – | – | – | 7338 | 3.56e5
rho-7 | 1 | – | – | – | 4596 | 2.69e5
CG31635 | 1 | – | – | – | 12536 | 6.97e5
CG31635 | 2 | – | reporter ratio raised past the hit cutoff | – | 8153 | 2.60e5
Pih1D1 | 1 | – | – | – | 65408 | 3.21e5
CG12784 | 1 | – | – | – | 8074 | 4.81e5
bin | 1 | – | – | – | 6915 | 3.86e5
CG32212 + hpRNA:CR33940 | 1 | – | – | – | 5504 | 5.29e5
CG34181 | 1 | – | – | – | 5691 | 5.76e5
CG31337 | 1 | – | – | – | 4563 | 3.64e5
CG4949 | 1 | – | – | – | 6692 | 5.47e5
CG13557 | 1 | – | – | – | 5992 | 3.85e5
CG34248 | 1 | – | – | – | 6679 | 4.58e5
Ugt307A1 | 1 | – | – | – | 9425 | 6.59e5
CG33640 | 1 | – | – | – | 4932 | 3.66e5
CG7945 | 1 | – | – | – | 7279 | 2.65e5
Osi15 | 1 | – | – | – | 5751 | 5.08e5
CG33125 | 1 | – | – | – | 4880 | 3.43e5
CG2611 | 1 | – | – | – | 1.09e5 | 2.33e6
Papst2 | 1 | – | – | – | 8566 | 2.87e5
CG15641 | 1 | – | – | – | 5931 | 4.36e5
Cpr31A | 1 | – | – | – | 7040 | 4.76e5
CG12725 | 1 | – | – | – | 4903 | 4.09e5
Usp2 | 1 | – | – | – | 5151 | 3.69e5
Usp2 | 2 | – | – | – | 7059 | 4.89e5
Usp2 | 3 | – | – | – | 5172 | 3.42e5
